Values quoted from earlier work as cited in patent US20240269136A1, “EGFR INHIBITOR AND PERK ACTIVATOR IN COMBINATION THERAPY AND THEIR USE FOR TREATING CANCER” (Genentech, Inc., priority 2021, published 2024).
Some of these results come from one statement about several compounds together.

System: EGFR-mutant EGFR-T790M NSCLC patients
Conditions: EGFR-mutant EGFR-T790M NSCLC patients who have developed resistance to gefitinib or erlotinib; cited from earlier work

C=CC(=O)Nc1cccc(Nc2nc(Nc3ccc(N4CCN(C(C)=O)CC4)cc3OC)ncc2C(F)(F)F)c1 [Rociletinib, N-[3-[[2-[4-(4-acetylpiperazin-1-yl)-2-methoxy-anilino]-5-(trifluoromethyl)pyrimidin-4-yl]amino]phenyl]prop-2-enamide]
response rate: > 50%
